Literature values, collected in patent publication US8110228B2, “Composition for treatment of menopause” (Bionovo, Inc., priority 2005, dated 2012).
At least one structure is not confirmed: it was looked up by name or label, or the drawing left a doubt.

How the values were obtained:
[1] = tested on: keratin 19 gene in U2OS-ERα cells; settings: U2OS cells with tetracycline-inducible ERα; previously shown (Kian Tee 2004); cited from earlier work
[2] = tested on: keratin 19 gene in U2OS-ERβ cells; settings: U2OS cells with tetracycline-inducible ERβ; previously shown (Kian Tee 2004); cited from earlier work
[3] = tested on: keratin 19 ERE in U2OS-ERα cells; settings: previously reported (Kian Tee 2004); cited from earlier work
[4] = tested on: keratin 19 ERE in U2OS-ERβ cells; settings: previously reported (Kian Tee 2004); cited from earlier work
ERα-MCF-7 cells = ERα-MCF-7 cells (An 2001); cited from earlier work

## C[C@]12CC[C@@H]3c4ccc(O)cc4CC[C@H]3[C@@H]1CC[C@@H]2O [estradiol]
[1]
  stimulation of keratin 19 mRNA: dose-dependent stimulation
[2]
  stimulation of keratin 19 mRNA: dose-dependent stimulation
[3]
  recruitment of ERα: recruitment
[4]
  recruitment of ERβ: recruitment
ERα-MCF-7 cells
  cell number: dose-dependent increase
